AC50 data for 67 compounds are collected here from PubChem BioAssay AID662 (National Center for Advancing Translational Sciences (NCATS), 2007).

The structures appear in SMILES notation. Values joined by “and” are separate entries in the source; they are usually repeats but may differ in a detail not shown here. Equal values may be shown once. Some of the results follow. These are further read-outs of the screen, such as a control signal, another cell line or another target. No call is given for them. Most of these compounds were active or inconclusive in the main read-out, so they are no random draw. The note in brackets gives the kind of curve behind each potency; many fits are weak.

What is called AC50 is the concentration giving half of the maximal activity seen.

The test is described as follows: Cell signaling CRE-BLA (Fsk stim). To be noted: CHO CRE-bla reporter (cAMP response element driving beta-lactamase), forskolin EC10, beta-lactamase ratio; measured here: 460 nm blue channel. An outline of the steps: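 Cells were plated overnight at 37 °C, exposed to compound titrations plus EC10 NKH 477 for 3 h, then given CCF4 dye for 2 h at room temperature. Blue/green (460/530 nm) ratio was converted to %Activity and AC50 values calculated.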
Take `CC1=C(C(=O)OC2CCCCCCC2)C(c2cccc(O)c2)NC(=O)N1` (configuration not stated): the AC50 was 0.398 µM [rising, partial curve].
The figure for `O=C(COC(=O)C1CC1)c1c[nH]c2ccccc12` is 7.94 µM [falling, partial curve]; for `CN(CCNC(=O)c1cc2c(=O)n(C)c3ccccc3c2n1C)Cc1ccccc1` it is 5.01 µM [rising, full curve]; for `CN1CCN(c2ncc3nc(-c4ccccc4)c(=O)n(CCc4ccccc4)c3n2)CC1` it is 12.6 µM [rising, partial curve].
With `Cc1cc(C(=O)N(C)CC(=O)Nc2ccccc2C(F)(F)F)c(C)o1`, the AC50 is 5.01 µM [falling, single point].
The result for `COc1ccc(CNc2ncnc3ccc(-c4ccccc4C#N)cc23)c(OC)c1` reads 2.51 µM [rising, full curve]; that for `COc1cccc(NS(=O)(=O)c2ccc3[nH]cc(C(=O)NCCN4CCOCC4)c(=O)c3c2)c1`, 0.0251 µM [falling, full curve, poor fit].
Consider `COCCn1c(=O)c(-c2cccs2)nc2cnc(OCc3ccccc3)nc21`, for which the AC50 is 3.16 µM [rising, partial curve].
The result for `Cc1[nH]c(C)c(C(=O)O)c1CNC1CCCCC1C` (configuration not stated) reads 0.0794 µM [falling, partial curve]; that for `CC(=O)Nc1sc2c(c1C(c1cccs1)N1CCOCC1)CCCC2` (configuration not stated), 0.251 µM [falling, full curve]; that for `CCOc1ccc2c(c1)C(C)=CC(C)(C)N2`, 15.8 µM [rising, partial curve].
As for `COc1ccc(OC)c(-c2nnc(-c3ccc(C)o3)o2)c1`, the AC50 was 25.1 µM [rising, single point].
`CCn1nc(NC(=O)c2ccncc2)c2cc3ccc(C)cc3nc21`: the AC50 was 1 µM [rising, partial curve].
The result for `Cc1ccc(C)c(N2CCN(C(=O)C3CCN(c4nc(C)cc(C)n4)CC3)CC2)c1` reads 10 µM [falling, single point]; that for `O=C(CCS(=O)(=O)c1ccc(Br)cc1)N1CCN(Cc2ccccc2)CC1`, 0.631 µM [falling, full curve]; that for `CSc1nsc(SCc2ccc(F)cc2)n1`, 3.16 µM [rising, single point].
As for `COC(=O)c1cc(CSc2nc3ccc(C)cc3[nH]2)oc1C`, the AC50 was 0.2 µM [rising, full curve].
The result for `COc1ccc(CN(C(=O)c2ccco2)c2ccc(Br)cc2)cc1OC` reads 7.94 µM [rising, partial curve]; that for `CCCCN1C(=O)C(O)(CC(=O)c2c(C)n[nH]c2C)c2cc(Br)ccc21` (configuration not stated), 31.6 µM [falling, single point]; that for `Cn1c(=O)c2[nH]c(C3CCCC3)nc2n(C)c1=O`, 31.6 µM [falling, single point].
Consider `CCOc1ccc(N2CC(=O)SC2=S)cc1`, for which the AC50 is 31.6 µM [falling, single point].
For the compound `CCS(=O)(=O)c1ccc2oc(SCC(=O)c3ccco3)nc2c1`, the concentration at half-maximal activity (AC50) is 12.6 µM [rising, partial curve].
The figure for `c1ccc(-n2nnnc2SCc2cn3ccccc3n2)cc1` is 10 µM [rising, single point]; for `CCOC(=O)CSc1nc2cc(C)ccc2cc1C#N` it is 0.794 µM [rising, full curve, poor fit].
The figure for `N=c1n(CCN2CCOCC2)c2ccccc2n1CC(=O)c1ccc(Cl)c(Cl)c1` is 25.1 µM [falling, single point].
The result for `Cn1nc(C(C)(C)C)cc1C(=O)Nc1nc2c(s1)C(=O)CC(C)(C)C2` reads 12.6 µM [rising, single point].
For `CC1CN(c2oc(-c3ccco3)nc2C#N)CC(C)O1` (configuration not stated), the AC50 was 7.94 µM [rising, partial curve, poor fit].
In the case of `O=C(c1cc(-c2ccc(F)cc2)on1)N1CCCC1`, the AC50 is 25.1 µM [rising, single point].
As to `CC1CCCN(C(=O)CN2C(=O)c3ccccc3C2=O)C1` (configuration not stated), the AC50 is 0.2 µM [falling, full curve].
For `COc1ccc2c(CC(=O)NCc3ccc4c(c3)OCO4)coc2c1`, the AC50 was 0.251 µM [falling, full curve, poor fit].
The result for `Cn1c(=O)c(-c2cccs2)nc2cnc(Oc3ccccc3)nc21` reads 10 µM [rising, partial curve]; that for `CN(C)c1ncc2nc(CCc3ccccc3)c(=O)n(C3CC3)c2n1`, 10 µM [rising, partial curve]; that for `COC(=O)c1ccccc1NC(=O)CSc1nnnn1-c1ccc(C)cc1C`, 12.6 µM [rising, single point].
The result for `Cc1cccc(CNc2nc(-c3c(C)noc3C)nc3ccccc23)c1` reads 3.98 µM [rising, single point]; that for `CCn1c(SCC(=O)N2CCCc3ccccc32)nc2cccnc21`, 10 µM [rising, partial curve]; that for `CCn1c(CCNC(=O)c2ccc(Cl)cc2)nnc1SCC(=O)NC1CCCC1`, 0.00398 µM [falling, full curve, poor fit].
As for `CCOc1ccc2[nH]c(C)c(CN3CCN(CC)CC3)c(=O)c2c1`, the AC50 is 0.1 µM [falling, full curve].
The result for `COc1ccc(-n2c(=O)c3c4c(sc3n3c(C)nnc23)COC(C(C)C)C4)cc1` (configuration not stated) reads 15.8 µM [rising, partial curve, poor fit].
The figure for `CCOC(=O)N1CCN(S(=O)(=O)c2ccc(C(=O)Nc3ccc(F)cc3F)cc2)CC1` is 12.6 µM [rising, single point].
The figure for `Cn1c(SCc2nc3ccccc3[nH]2)nnc1-c1ccccn1` is 25.1 µM [rising, single point].
For the compound `CCOc1ccc(NS(=O)(=O)c2ccc3[nH]cc(C(=O)NCCOC)c(=O)c3c2)cc1`, the half-maximal activity concentration (AC50) is 15.8 µM [falling, partial curve, poor fit].
Turning to `COc1ccc(CN2C(=O)[C@@H]3C(c4ccc(F)cc4)=NO[C@@H]3C2=O)cc1`, the half-maximal activity concentration (AC50) was 12.6 µM [rising, single point].
The figure for `Cc1cccc(N2CCN(C(=O)Cn3ccc4ccccc4c3=O)CC2)c1C` is 1 µM [falling, full curve]; for `COc1ccccc1C(=O)NCCn1cc(SCC(=O)Nc2nnc(C)s2)c2ccccc21` it is 1 µM [rising, full curve].
`OC(COc1ccc2c(c1)OCO2)CN1CCc2ccccc2C1` (configuration not stated): the half-maximal activity concentration (AC50) is 5.01 µM [falling, partial curve].
The figure for `COc1ccc(NS(=O)(=O)c2ccc3c(c2)CCC(=O)N3)c(OC)c1` is 0.501 µM [falling, partial curve].
As to `CC(C)Cn1c(N)c(C(=O)CSc2ccc3c(c2)OCCO3)c(=O)n(C)c1=O`, the AC50 is 6.31 µM [falling, single point].
As to `CCOC(=O)c1c(NC(=O)c2cccs2)sc2c1CCC2`, the AC50 is 3.16 µM [rising, full curve].
For `O=c1c(O)c(-c2ccc(O)c(O)c2)oc2cc(O)ccc12`, the concentration at half-maximal activity (AC50) was 25.1 µM [rising, partial curve].
Take `CCN(CC)CCC[C@H](C)Nc1c2ccc(Cl)cc2nc2ccc(OC)cc12`: the concentration at half-maximal activity (AC50) is 25.1 µM [rising, partial curve] and 7.94 µM [rising, partial curve].
Consider `COc1ccc(-c2nc(C(N)=O)c3[nH]c(=O)n(-c4cccc(Cl)c4)c3n2)cc1OC`, for which the half-maximal activity concentration (AC50) is 15.8 µM [rising, partial curve].
The result for `CCOc1cc(-c2cc(-c3ccc(N)cc3)nc(N)c2C#N)ccc1O` reads 3.16 µM [rising, full curve]; that for `COc1cc(NC(=O)c2ccco2)c(OC)cc1NC(=O)CSc1nnc(-c2cccs2)n1C`, 3.16 µM [rising, full curve]; that for `COc1ccc2nc(C)c3cc(C)oc3c2c1`, 10 µM [rising, partial curve].
The result for `O=c1c(-c2ccc(F)cc2)nc2cnc(N3CCOCC3)nc2n1CCc1ccccc1` reads 0.501 µM [rising, full curve]; that for `CCOC(=O)/C(N=O)=C(\O)C1CCN(C(=O)OCC)CC1`, 10 µM [falling, partial curve]; that for `C[C@@]12CC[C@@H]3c4ccc(O)cc4C[C@H](CCCCCCCCCS(=O)CCCC(F)(F)C(F)(F)F)[C@H]3[C@@H]1CC[C@@H]2O` (some centres not stated), 0.126 µM [rising, full curve].
The figure for `c1coc(CNc2nc(-c3ccncc3)cs2)c1` is 31.6 µM [falling, single point].
Regarding `CCOC(=O)CCNC(=O)Nc1ccc2nc(C)n(Cc3ccc(Cl)cc3)c(=O)c2c1`, the half-maximal activity concentration (AC50) was 5.01 µM [falling, single point].
The result for `COc1ccc2[nH]cc(CCNc3cc(-c4ccoc4)ncn3)c2c1` reads 7.94 µM [rising, partial curve]; that for `CCc1c(C)c2ccc(OCC(=O)N(C)C)c(C)c2oc1=O`, 12.6 µM [rising, partial curve]; that for `Cn1c(NCCO)nc2c(c1=O)C1(CCCCC1)Cc1ccccc1-2`, 10 µM [rising, partial curve].
The figure for `CCc1ccccc1NC(=O)CN(c1cccc(OC)c1)S(C)(=O)=O` is 1 µM [falling, full curve].
`Cc1cccc2cc(CN(Cc3cccs3)C(c3nnnn3C3CCCC3)C(C)C)c(=O)[nH]c12` (configuration not stated): the half-maximal activity concentration (AC50) is 0.398 µM [rising, full curve, poor fit].
Regarding `CCCOCCOC(=O)c1[nH]c2c(c1C)C(=O)CC(c1cc(OC)ccc1OC)C2` (configuration not stated), the concentration at half-maximal activity (AC50) was 2 µM [rising, full curve].
The figure for `CCCCn1ccc(=O)c2c(C(F)(F)F)nccc21` is 1 µM [rising, single point]; for `O=C(CSc1nc2nc(-c3cccs3)cc(C(F)(F)F)c2c(=O)[nH]1)NCc1ccco1` it is 10 µM [rising, single point].
